For some of these results: The name of at least one read-out is uncertain. For some of these results: At least one compound was matched to its structure with a doubt left.
Key:
[1] = Growth substrates: final OD and % removal of cis-DCE and TCE (Table 1); type: cell-based; conditions: culture grown on the listed substrate
[2] = tested on: Burkholderia vietnamiensis G4; assay: Resting cell TCE transformation tests with G4; type: cell-based; conditions: G4 grown on the substrate
Source text: This example concerns COC cometabolism by Burkholderia vietnamiensis G4 (G4).

Row | Compound | % REMOVAL Cis-DCE [1] [%] | FINAL OD(550) [1] | TCE transformation by resting cells [2]
1 | OCc1ccccc1 [Benzyl alcohol] | 100 | .018 | 
2 | CCCC(=O)O [Butyrate] | 93 | 0.40 | Slow rates
3 | CCC(=O)O [Propionate] | 42 | 0.30 | 
